The list does not hold the whole screen: it gathers tests that were run many times, whatever their T/C, doses with no T/C, and many T/C values between a quarter and a half above the control. Further doses and runs are listed elsewhere. T/C gives the treated animals as a percentage of the vehicle group. Some entries give survivors of the animals treated and no T/C: the source holds a T/C of zero for them, seemingly a mark for toxic or unscored doses. Some survivor counts are full or nearly so, which does not show that the dose was tolerated: survival well below the control is almost never listed, so the zero probably covers shortened survival too. Counts of survivors are from the toxicity check (mostly the fifth day) where no day follows; animals may have died later. Schedule codes are those of the source, taken here to give the interval after Q, in days (D) or hours (H), and the number of doses after X. Some doses were run more than once; the results are listed from low to high. Some schedules carry Z or #; the key to these is not given. Additions like (4×) count equal records among those shown. Some structures stand for samples that the source files as different forms (salt, stereo form or complex); doses refer to the form tested. For survival time, this PubChem deposit counts one and a half times the control or more as active, and values a quarter to a half above the control carry no call in these data; other NCI protocols may use other cut-offs.

This test relates to L1210 leukemia ip in BDF1 mice, survival T/C. Put plainly: NCI In Vivo Anticancer Drug Screen. Data for tumor model L1210 Leukemia (intraperitoneal) in B6D2F1 (BDF1) mice. Conditions: T/C endpoint: mean survival time, higher T/C = longer survival.
Setting [1] is: dose: 100.0 mg/kg/injection, schedule: Q01DX009 (ip), vehicle: saline with Tween-80.
Setting [2] is: dose: 200.0 mg/kg/injection, schedule: Q01DX009 (ip), vehicle: saline with Tween-80.
Setting [3] is: dose: 400.0 mg/kg/injection, schedule: Q01DX009 (ip), vehicle: saline with Tween-80.
[4] abbreviates: dose: 400.0 mg/kg/injection, schedule: Q01DX009 (ip), vehicle: saline.
Where [5] appears, read: dose: 400.0 mg/kg/injection, schedule: Q01DX001 (ip), vehicle: saline.
[6] abbreviates: dose: 400.0 mg/kg/injection, schedule: Q04DX003 (ip), vehicle: Klucel (hydroxypropylcellulose) (HPC).
Where [7] appears, read: dose: 400.0 mg/kg/injection, schedule: Q01DX009 (ip), vehicle: Klucel (hydroxypropylcellulose) (HPC).
[8] abbreviates: dose: 200.0 mg/kg/injection, schedule: Q01DX001 (ip), vehicle: carboxymethylcellulose (CMC).
Where [9] appears, read: dose: 400.0 mg/kg/injection, schedule: Q01DX001 (ip), vehicle: carboxymethylcellulose (CMC).
Setting [10] is: dose: 400.0 mg/kg/injection, schedule: Q04DX003 (ip), vehicle: saline.
Where [11] appears, read: dose: 200.0 mg/kg/injection, schedule: Q04DX003 (ip), vehicle: saline with Tween-80.
Where [12] appears, read: dose: 400.0 mg/kg/injection, schedule: Q04DX003 (ip), vehicle: saline with Tween-80.
The mark [13] stands for this setting: dose: 200.0 mg/kg/injection, schedule: Q01DX001 (ip), vehicle: saline.

On to `CCN(CC)CCC(=O)c1ccccc1`, for which the survivor count was 0 of 3 under setting [1]; 0 of 3 and 0 of 6 under setting [2]; 0 of 6 under setting [3].
Turning to `ClCc1ccc2ccc3cccc4ccc1c2c34`, the survivor count (dose: 50.0 mg/kg/injection, schedule: Q01DX009 (ip), vehicle: carboxymethylcellulose (CMC)) is 4 of 6.
For `O=C(O)CCC(=O)c1cccc2ccccc12`, the survivor count under setting [4] was 3 of 6.
For `O=NN1CCCCC1`, under setting [5], the survivor count was 0 of 4.
As for `Clc1nc2nc(Cl)n(Cl)c2nc1Cl`, the survivor count under setting [3] is 0 of 6.
Take `CC(C)(C)C1COP(=S)(c2ccccc2)OC1` (stereo unspecified): the survivor count was 2 of 6 (dose: 100.0 mg/kg/injection, schedule: Q04DX003 (ip), vehicle: Klucel (hydroxypropylcellulose) (HPC)); 0 of 6 (2×) (dose: 200.0 mg/kg/injection, schedule: Q04DX003 (ip), vehicle: Klucel (hydroxypropylcellulose) (HPC)); 0 of 6 (2×) under setting [6].
On to `O=C(/C=C(\CBr)c1ccc(-c2ccccc2)cc1)c1ccccc1`, for which, under “dose: 200.0 mg/kg/injection, schedule: Q01DX001 (ip), vehicle: saline with Tween-80”, the survivor count was 6 of 6.
Regarding `CC(C)C(=O)Nc1ccc([N+](=O)[O-])c(C(F)(F)F)c1`, the survivor count is 2 of 6 and 2 of 3 under setting [7]; 3 of 6 under setting [4].
Consider `COc1ccc2nc3cc(Cl)ccc3c(Nc3ccc(O)c(CN4CCN(C)CC4)c3)c2c1`, for which the survivor count (dose: 300.0 mg/kg/injection, schedule: Q04DX003 (ip), vehicle: other) is on record as 3 of 6.
Regarding `CC(=O)OCCOc1ccc(C(C)(C)C)cc1`, the survivor count (dose: 50.0 mg/kg/injection, schedule: Q01DX009 (ip), vehicle: Klucel (hydroxypropylcellulose) (HPC)) is listed as 3 of 3 and the survivor count (dose: 200.0 mg/kg/injection, schedule: Q01DX009 (ip), vehicle: Klucel (hydroxypropylcellulose) (HPC)) is 3 of 3.
Take `O=S1(=O)CCCCC1=C(c1ccccc1)c1ccccc1`: for the setting “dose: 400.0 mg/kg/injection, schedule: Q04DX002 (ip), vehicle: saline with Tween-80”, the survivor count is reported as 3 of 3.
Regarding `Cc1ccc(C(=O)n2c(Cl)c(/C=N/NC(N)=S)c3ccccc32)cc1`, the survivor count (dose: 200.0 mg/kg/injection, schedule: Q04DX002 (ip), vehicle: Klucel (hydroxypropylcellulose) (HPC)) is given as 1 of 3.
As for `O=[N+]([O-])c1ccc(-[n+]2nc(-c3ccccc3)nn2-c2ccc(I)cc2)cc1`, the survivor count is, setting by setting: (dose: 100.0 mg/kg/injection, schedule: Q01DX001 (ip), vehicle: carboxymethylcellulose (CMC)) 0 of 6; (dose: 128.0 mg/kg/injection, schedule: Q01DX015 (ip), vehicle: carboxymethylcellulose (CMC)) 0 of 6; under setting [8], 0 of 6; under setting [9], 0 of 6.
`COc1ccc(C(=O)NC(=S)Nc2ccccc2F)cc1`: under setting [7], the survivor count was 6 of 6.
On to `C[N+]1(CC(O)COc2ccc(Nc3ccc(N)c4c3C(=O)c3ccccc3C4=O)cc2)CCOCC1` (stereo unspecified), for which the survivor count is recorded as 0 of 6 (dose: 200.0 mg/kg/injection, schedule: Q01DX001 (ip), vehicle: acetone) and 0 of 6 (dose: 400.0 mg/kg/injection, schedule: Q01DX001 (ip), vehicle: acetone).
As to `O=CNc1ccccc1Cc1ccccc1`, the survivor count under setting [5] is reported as 1 of 4.
Regarding `CNN`, the survivor count by setting is: (dose: 50.0 mg/kg/injection, schedule: Q01DX009 (ip), vehicle: saline) 4 of 6; (dose: 100.0 mg/kg/injection, schedule: Q01DX009 (ip), vehicle: saline) 0 of 6; (dose: 200.0 mg/kg/injection, schedule: Q04DX003 (ip), vehicle: saline) 0 of 6; under setting [10], 0 of 6.
On to `CC(C)(C)c1cc([N+](=O)[O-])cc(C(C)(C)C)c1O`, for which the survivor count reads like this: under setting [2], 6 of 6; under setting [10], 1 of 6.
For the compound `COc1cccc(/C=C2/COC/C(=C\c3cccc(OC)c3OC)C2=O)c1OC`, the survivor count under setting [4] is reported as 2 of 6.
`N#C/C(=C\c1ccc([N+](=O)[O-])o1)[N+](=O)[O-]`: the survivor count is on record as 0 of 6 under setting [11] and 0 of 6 under setting [12].
As to `CC(=O)Nc1ccccc1SC(C)=O`, the survivor count (dose: 200.0 mg/kg/injection, schedule: Q04DX003 (ip), vehicle: other) is given as 3 of 6 and the survivor count (dose: 400.0 mg/kg/injection, schedule: Q04DX003 (ip), vehicle: other) was 0 of 6.
`NC(N)=NCCN1C(c2ccccc2)C1c1ccccc1` (stereo unspecified): the survivor count runs as follows: under setting [1], 1 of 6; under setting [2], 0 of 6; under setting [3], 0 of 6.
Take `C[n+]1ccccc1SC12CC3CC(CC(C3)C1)C2`: the survivor count by setting is: (dose: 20.0 mg/kg/injection, schedule: Q01DX009 (ip), vehicle: Klucel (hydroxypropylcellulose) (HPC)) 0 of 6; (dose: 40.0 mg/kg/injection, schedule: Q01DX009 (ip), vehicle: Klucel (hydroxypropylcellulose) (HPC)) 0 of 6.
As for `CS(=O)(=O)OCCN(CCOS(C)(=O)=O)c1ccc(C=Nc2ccc(-c3csc(-c4ccc(Br)cc4)n3)cc2)c(Cl)c1`, the T/C under setting [6] was 127 % of control.
Turning to `O=C(O)c1cc(Br)c(Cl)c(Br)c1`, for the setting “dose: 400.0 mg/kg/injection, schedule: Q04DX002 (ip), vehicle: Klucel (hydroxypropylcellulose) (HPC)”, the survivor count is reported as 1 of 3.
Take `Cc1c(CCO)sc[n+]1Cc1ccccc1[N+](=O)[O-]`: the survivor count was 0 of 6 under setting [13] and 0 of 6 under setting [5].
As to `CC(C)=CC(=O)C1C(=O)c2ccccc2C1=O`, the survivor count runs as follows: under setting [8], 0 of 4; under setting [9], 0 of 4.
Take `OCC(I)CO`: the survivor count runs as follows: under setting [13], 2 of 4; under setting [5], 0 of 4.
As for `Cc1nc(N)nc2c1CCC(O)S2` (stereo unspecified), the survivor count by setting is: (dose: 100.0 mg/kg/injection, schedule: Q01DX001 (ip), vehicle: Klucel (hydroxypropylcellulose) (HPC)) 3 of 3; (dose: 400.0 mg/kg/injection, schedule: Q01DX001 (ip), vehicle: Klucel (hydroxypropylcellulose) (HPC)) 3 of 3.
As for `NC(N)=NCCCCCC(=O)O`, the survivor count was 5 of 6 (dose: 200.0 mg/kg/injection, schedule: Q01DX009 (ip), vehicle: saline); 0 of 6 and 1 of 6 under setting [4].
For the compound `Nc1ncnc2nc(SC3OC(CO)C(O)C3O)[nH]c12` (stereo unspecified), the survivor count (dose: 75.0 mg/kg/injection, schedule: Q01DX001 (ip), vehicle: saline) is 3 of 6.
With `CCOC(=O)c1cnc(NN)nc1NCc1ccccc1`, the survivor count under setting [12] is 3 of 6.
In the case of `Cc1cc(N(C)C)nc(SCc2ccc(F)cc2)n1`, under “dose: 100.0 mg/kg/injection, schedule: Q01DX Z (ip), vehicle: methylcellulose (MC)”, the survivor count is listed as 5 of 6.
For the compound `O=C(NO)c1cccc(C(=O)NO)n1`, the survivor count (dose: 800.0 mg/kg/injection, schedule: Q01DX015 (ip), vehicle: water) is 3 of 6.
With `O=C(C[n+]1ccc2ccccc2c1)c1ccc2ccccc2c1`, the survivor count was 6 of 6 (dose: 100.0 mg/kg/injection, schedule: Q04DX003 (ip), vehicle: saline with Tween-80); 4 of 6 under setting [11]; 4 of 6 under setting [12].
Consider `CC(=O)CC(C)=NCCN=C(C)CC(C)=O.[Ni]`, for which the survivor count reads like this: (dose: 25.0 mg/kg/injection, schedule: Q01DX009 (ip), vehicle: gum acacia) 6 of 6; (dose: 50.0 mg/kg/injection, schedule: Q01DX009 (ip), vehicle: gum acacia) 0 of 6; (dose: 100.0 mg/kg/injection, schedule: Q04DX003 (ip), vehicle: gum acacia) 0 of 6; (dose: 200.0 mg/kg/injection, schedule: Q04DX003 (ip), vehicle: gum acacia) 0 of 6; (dose: 400.0 mg/kg/injection, schedule: Q04DX003 (ip), vehicle: gum acacia) 0 of 6.

Source of the values: PubChem BioAssay AID248 (DTP/NCI, 2004).
